Source: PubChem BioAssay AID1439 (NMMLSC, 2008)
In all, about 220,000 compounds went through this assay and about 770 (0.35%) were called active. This list was built around the results that the source calls inconclusive (neither active nor inactive); the mix of calls is not that of the screen. Rule as the data show it: active = binding response below about 49% or above about 150%; inconclusive = no clear call, values can overlap the other calls; inactive = in between.

Amino acid sequences for entries named in this document (tags omitted).
UniProt P09471, whole entry, looked up: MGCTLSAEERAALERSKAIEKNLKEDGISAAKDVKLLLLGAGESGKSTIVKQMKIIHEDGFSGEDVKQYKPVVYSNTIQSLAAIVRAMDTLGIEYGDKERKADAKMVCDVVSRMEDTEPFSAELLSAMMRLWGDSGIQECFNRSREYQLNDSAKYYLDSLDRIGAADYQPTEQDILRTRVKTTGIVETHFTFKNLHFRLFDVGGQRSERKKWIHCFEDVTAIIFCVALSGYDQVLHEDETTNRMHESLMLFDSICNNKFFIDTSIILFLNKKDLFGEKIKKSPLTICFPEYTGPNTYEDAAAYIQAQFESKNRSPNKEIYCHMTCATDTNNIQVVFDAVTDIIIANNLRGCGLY

The compounds below were run against Guanine nucleotide-binding protein G(o) subunit alpha (Homo sapiens) (UniProt P09471) (assay: RGS7-Galphao binding modulators, primary screen, biochemical, multiplexed bead flow cytometry (AID 1439;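 also: fluorescent Galphao held in activated GDP-AlF4 state binding bead-coupled RGS7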)). Settings: at 10 µM, actives lie on both sides.
With Cc1c(NC(=O)C(C)OC(=O)/C=C/c2ccc3c(c2)OCO3)c(=O)n(-c2ccccc2)n1C (centres undefined) the binding response (% of control) was inconclusive: 106%. With Nc1nc2nonc2nc1N the binding response (% of control) was inconclusive: 117%. In the case of C=C(C)CC(NCCc1ccccc1)c1ccco1 (centres undefined), the binding response (% of control) was inactive: 135%. Cc1ccc(CN2CCN(Cc3cccn3-c3nccs3)CC2CCO)cc1 (centres undefined) was tested, and the binding response (% of control) was inactive: 99.7%. In the case of Cc1nc(C)c(C(=O)NNC(=O)Nc2ccc(Cl)cc2)s1, the binding response (% of control) was inconclusive: 13.3%. COc1cc(N=Nc2c(C)n(C)n(-c3ccccc3)c2=O)ccc1N was tested, and the binding response (% of control) was inactive: 102%. Cc1ccccc1-c1nnc(-c2cccs2)o1 was tested, and the binding response (% of control) was inactive: 102%. In the case of COc1ccc(NC(=S)Nc2ccccc2)cc1, the binding response (% of control) was inconclusive: 88.2%. In the case of C#CC1CCCCC1NC(=O)Nc1cnccc1C(F)(F)F (centres undefined), the binding response (% of control) was inconclusive: 68.6%. For Nc1cc(N2CCCCC2)c([N+](=O)[O-])cc1Cl, the binding response (% of control) was inactive: 98.7%. With O=C(NC1CC1)C1=C[C@H](c2csc3ccccc23)C[C@H](OCc2ccc(CO)cc2)O1 the binding response (% of control) was inconclusive: 88.7%. With CCOC(=O)CNC(=O)c1ccc(OCC(F)(F)F)cc1 the binding response (% of control) was inconclusive: 103%. In the case of COC(=O)c1onc(-c2c(C)cc(C)cc2C)c1C(=O)OC, the binding response (% of control) was inactive: 98%. With O=C(CP(=O)(c1ccccc1)c1ccccc1)Nc1nc2ccc(Cl)cc2s1 the binding response (% of control) was inconclusive: 106%. With Cc1ccc(S(=O)(=O)CCC(=O)OCc2ccc(S(=O)(=O)C(C)C)cc2)cc1 the binding response (% of control) was inconclusive: 99.2%. In the case of COC(=O)c1sc(-c2ccc(C(C)(C)C)cc2)cc1NC(=O)c1ccccc1C(=O)O, the binding response (% of control) was inconclusive: 74.7%. In the case of Cc1nc(C)c(C(=O)C2=C(O)C(=O)N(CCN(C)C)C2c2ccco2)s1 (centres undefined), the binding response (% of control) was inconclusive: 85.8%. CC(C)(C)c1ccc(NC(=O)NC2CCCc3ccccc32)cc1 (centres undefined) was tested, and the binding response (% of control) was inconclusive: -56%. Cc1ccc(NC(=S)Nc2ccc3cn[nH]c3c2)c(C)c1 was tested, and the binding response (% of control) was inconclusive: 122%. O=C(O)C(c1ccccc1)C1(O)CCCCC1 (centres undefined) was tested, and the binding response (% of control) was inconclusive: 468%. For Cc1cccc(NC(=O)c2cc3c(s2)-c2c(C)cccc2OC3)n1, the binding response (% of control) was inconclusive: 127%. With Cc1cccc(NC(=S)N2CCCCC2c2cccnc2)c1C (centres undefined) the binding response (% of control) was inconclusive: 102%. In the case of CC1CCCC(NC(=O)CCCn2c(=O)[nH]c3cc(Cl)ccc3c2=O)C1C (centres undefined), the binding response (% of control) was active: 176% [activator]. O=C1Cc2ccccc2C(c2ccc(Cl)cc2Cl)N1 (centres undefined) was tested, and the binding response (% of control) was inconclusive: 119%. In the case of CC(O)[C@H]1CNC(=S)N1CCc1cccc(F)c1 (some centres undefined), the binding response (% of control) was inconclusive: 91.1%. In the case of NC(=O)C1CCN(S(=O)(=O)c2ccc3c(c2)OCCO3)CC1, the binding response (% of control) was inconclusive: -2.01%. For COC(=O)c1ccccc1NC(=S)N1CCN(c2ccccn2)CC1, the binding response (% of control) was inconclusive: 96.6%. O=C(Nc1cccc(Cl)c1)Nc1nnc(CC2=CCCCC2)s1 was tested, and the binding response (% of control) was inactive: 90.8%. For CN(C)S(=O)(=O)c1ccc(Cl)c(NC(=O)COC(=O)CC(NC(N)=O)c2ccc(Cl)cc2)c1 (centres undefined), the binding response (% of control) was inconclusive: 84.2%. In the case of CCOC(=O)c1nc(NCc2ccccc2C)c2ccccc2n1, the binding response (% of control) was inconclusive: 121%. For COc1ccc(OCCN(C)Cc2ccccc2)cc1, the binding response (% of control) was inactive: 92.5%. In the case of Cc1c(C(=O)OCC(=O)NCC2CCCO2)cccc1[N+](=O)[O-] (centres undefined), the binding response (% of control) was inconclusive: 99.2%. In the case of Nc1nc(CCl)nc(Nc2ccc3ccccc3c2)n1, the binding response (% of control) was inconclusive: 67.8%. For O=C(NCc1ccccn1)c1ccco1, the binding response (% of control) was inactive: 101%. In the case of O=C(c1ccccc1O)N1CCOCC1, the binding response (% of control) was inconclusive: 94.6%. For C=CC[n+]1c(-c2ccc(OCC)cc2)csc1NNC(=O)Nc1ccccc1, the binding response (% of control) was inactive: 95.1%. CS(=O)(=O)N1CCN(C(=O)Cc2ccccc2Cl)CC1 was tested, and the binding response (% of control) was inactive: 95.4%. For CN1C(=O)CC(C(=O)Nc2ccccc2F)SC1=Nc1ccc2c(c1)OCO2 (centres undefined), the binding response (% of control) was inconclusive: 111%. In the case of NC(=O)CC(NC(=O)Cc1ccc(Br)cc1)c1ccc(NCC2CC2)c([N+](=O)[O-])c1 (centres undefined), the binding response (% of control) was inconclusive: 114%. O=C1CSC(=Nc2ccccc2[N+](=O)[O-])N1 was tested, and the binding response (% of control) was inactive: 104%. CCOc1ccc(-n2c(O)cc(=O)[nH]c2=O)cc1 was tested, and the binding response (% of control) was inconclusive: 88%. CC(C)(C)c1csc(NNC(=O)c2ccc(Br)cc2)n1 was tested, and the binding response (% of control) was inconclusive: 89.8%. COc1cc(NC(=O)c2ccnnc2)cc(C(=O)Nc2cccc(C(F)(F)F)c2)c1 was tested, and the binding response (% of control) was inconclusive: 91.9%. CCCCOc1ccc(-c2c(C#N)c(N)[nH]c(=S)c2C#N)cc1 was tested, and the binding response (% of control) was inconclusive: 102%. In the case of COCCNC(=O)Cn1cc(S(=O)(=O)N2CCN(c3ccccc3F)CC2)c2ccccc2c1=O, the binding response (% of control) was inconclusive: 96%. For NC(=O)N/N=C/c1cc(F)cc(F)c1, the binding response (% of control) was inconclusive: 107%. For CCCc1ccc(NS(=O)(=O)c2c(C)oc(C)c2C(=O)OC)cc1, the binding response (% of control) was inconclusive: 108%. For Cc1ccc(NS(=O)(=O)c2ccc(C(=O)N3CCCN(C)CC3)cc2)cc1, the binding response (% of control) was inactive: 98.6%. In the case of Cc1ccccc1NC(=O)c1c(C)cc(=O)oc1C, the binding response (% of control) was inconclusive: 135%. COc1ccc(OCCNC(=O)CCCO)cc1 was tested, and the binding response (% of control) was inconclusive: 119%. In the case of COC(=O)c1cc(Nc2cc(C)c3ccc(O)cc3n2)cc(C(=O)OC)c1, the binding response (% of control) was inconclusive: 105%. Clc1ccc(/C=N/N2CCN(Cc3ccccc3Cl)CC2)cc1 was tested, and the binding response (% of control) was inconclusive: 118%. For CCn1c(/C=C/c2ccccc2C)nc2ccccc2c1=O, the binding response (% of control) was inconclusive: 111%. With C=CCOC(=O)C1CC=CCC1C(=O)Oc1ccc(F)cc1F (centres undefined) the binding response (% of control) was inactive: 103%. For O=C(COC(=O)c1cncc(Br)c1)NCc1ccc(F)cc1, the binding response (% of control) was inconclusive: 105%. In the case of O=C(CSc1ncnc2ccccc12)NCC(=O)c1ccccc1, the binding response (% of control) was inactive: 104%. For CCC(=O)Nc1nc2ccc(NC(=O)c3cc(OC)c(OC)c(OC)c3)cc2s1, the binding response (% of control) was inactive: 114%. With O=C(Cn1nc(-c2ccc(Cl)cc2)c2ccccc2c1=O)NN1CCOCC1 the binding response (% of control) was inconclusive: 105%. With CN(C)c1ccc(/C=N/NC(=O)CN(c2ccccc2Cl)S(C)(=O)=O)cc1Br the binding response (% of control) was inactive: 100%. For O=C1Nc2c(ccc(Cl)c2Cl)C(=O)C1(F)c1ccccc1 (centres undefined), the binding response (% of control) was inconclusive: 174%. With CCCCCn1c(NC2CCCCC2)nc2c1c(=O)[nH]c(=O)n2C the binding response (% of control) was inconclusive: 44.3%. O=C(COC(=O)Cc1ccccc1F)Nc1cccc(S(=O)(=O)NC2=NCCCCC2)c1 was tested, and the binding response (% of control) was inactive: 98.1%. For CN(C(=S)NCCN1CCOCC1)C(c1ccccc1)c1ccccc1, the binding response (% of control) was inconclusive: 87.9%. With Cc1c(C(=O)NCCSCc2c(F)cccc2Cl)cnn1-c1ccc(Cl)cc1 the binding response (% of control) was inconclusive: 83.6%. For Cc1ccsc1C(=O)OCC(=O)NCc1ccc2c(c1)OCO2, the binding response (% of control) was inactive: 104%. COc1ccccc1N(CC(=O)N(CC(C)C)CC(C)C)S(=O)(=O)c1cccs1 was tested, and the binding response (% of control) was inconclusive: 86.8%. For NC(=O)C1CCN(c2cc(Cl)ccc2[N+](=O)[O-])CC1, the binding response (% of control) was inconclusive: 82.6%. With Cc1cc(OC(=O)c2ccc(S(=O)(=O)N3CCCC3)cc2)c([N+](=O)[O-])c(=O)[nH]1 the binding response (% of control) was inactive: 110%. In the case of CCc1ccc(N2CN=c3s/c(=C\c4ccccc4)c(=O)n3C2)cc1, the binding response (% of control) was inconclusive: -235%. O=C(O)c1cn(-c2ccccc2)nc1-c1cccnc1 was tested, and the binding response (% of control) was inactive: 97.7%. With Cc1ncn2cc(-c3ccc(Cl)cc3Cl)[nH]c(=O)c12 the binding response (% of control) was inconclusive: 87.8%. With Cc1cc(C)nc(/N=C(\N)Nc2ccccc2-c2ccccc2)n1 the binding response (% of control) was inactive: 107%. In the case of Cn1c(COc2ccccc2)nnc1SCC(=O)Nc1ccc2c(c1)OCO2, the binding response (% of control) was inactive: 84.9%. With COc1ccc(S(=O)(=O)N2CCOCC2)cc1NC(=O)CSc1nnc(C2CC2)n1N the binding response (% of control) was inconclusive: 106%. COC(=O)c1ccc(NCN2C(=O)C3C4CCC(C4)C3C2=O)cc1 (centres undefined) was tested, and the binding response (% of control) was inconclusive: 67.7%. In the case of C=CCn1c(SCC#N)nnc1-c1ccc2ncccc2c1, the binding response (% of control) was inconclusive: 129%. With CC(C)C(Nc1ccc(S(=O)(=O)N2CCOCC2)cc1[N+](=O)[O-])C(=O)O (centres undefined) the binding response (% of control) was inconclusive: 88.1%. With CCc1ccc(/C=C2\Oc3c(ccc(O)c3CN3CCN(CCO)CC3)C2=O)cc1 the binding response (% of control) was inconclusive: 117%. For O=C(NCc1ccco1)C(=O)NCC(c1ccco1)N1CCOCC1 (centres undefined), the binding response (% of control) was inconclusive: 95.2%. CNC(=O)N(O)C1N(/N=C/c2cccnc2)C(=S)SC1(C)C (centres undefined) was tested, and the binding response (% of control) was inconclusive: 97%. For CC1C/C(=N\NC(=O)c2ccc([N+](=O)[O-])cc2)CC(C)(C)C1 (centres undefined), the binding response (% of control) was inconclusive: 104%. For CCC(C)(NC(=O)c1ccc2c(c1)OCO2)C(=O)NC1CCCCC1 (centres undefined), the binding response (% of control) was inactive: 105%. With Cc1cc(C)n2nc(C(=O)N/N=C/c3ccco3)nc2n1 the binding response (% of control) was inconclusive: 108%. COc1ccc(CNC(=O)C/C(C)=N/NC(=O)COc2ccc(Br)cc2)cc1 was tested, and the binding response (% of control) was inactive: 104%. For COc1ccc(CCNC(=O)CC2COc3ccccc3O2)cc1OC (centres undefined), the binding response (% of control) was inactive: 107%. With CCN(C(=O)CSc1n[nH]c(-c2cccs2)n1)C1CCS(=O)(=O)C1 (centres undefined) the binding response (% of control) was inconclusive: 93.6%. O=C(CSc1ncc(C(F)(F)F)cc1Cl)NCC1CCCO1 (centres undefined) was tested, and the binding response (% of control) was inconclusive: 102%. With CC1(c2nnc(-c3ccc(F)cc3)o2)CC(c2c(Cl)cccc2Cl)=NO1 (centres undefined) the binding response (% of control) was inconclusive: 108%. For CN(C(=O)c1ccc2c(c1)CCO2)C(C)(C)C, the binding response (% of control) was inconclusive: 95.9%. N#CC(c1ccccc1)c1cccc(Cl)n1 (centres undefined) was tested, and the binding response (% of control) was inconclusive: 109%. O=C(O)COc1ccccc1-c1ccccc1 was tested, and the binding response (% of control) was inconclusive: 71.6%. CCN(CC)CCNc1nc(-c2ccc(OC)cc2)c(-c2ccc(OC)cc2)s1 was tested, and the binding response (% of control) was inconclusive: 90.7%. CC(C)(C)c1cc(NCCCn2ccnc2)n2ncc(-c3ccccc3)c2n1 was tested, and the binding response (% of control) was inconclusive: 63.4%. For COCCn1c(=O)c2ccccc2c2ccccc2c1=O, the binding response (% of control) was inconclusive: 84.9%.
